# Experimental data published in PMC7696177.
# Protein sequences, listed by entry. Tags and fused reporters are not part of them. Residues count along the entry.
# UniProt Q8R4B8: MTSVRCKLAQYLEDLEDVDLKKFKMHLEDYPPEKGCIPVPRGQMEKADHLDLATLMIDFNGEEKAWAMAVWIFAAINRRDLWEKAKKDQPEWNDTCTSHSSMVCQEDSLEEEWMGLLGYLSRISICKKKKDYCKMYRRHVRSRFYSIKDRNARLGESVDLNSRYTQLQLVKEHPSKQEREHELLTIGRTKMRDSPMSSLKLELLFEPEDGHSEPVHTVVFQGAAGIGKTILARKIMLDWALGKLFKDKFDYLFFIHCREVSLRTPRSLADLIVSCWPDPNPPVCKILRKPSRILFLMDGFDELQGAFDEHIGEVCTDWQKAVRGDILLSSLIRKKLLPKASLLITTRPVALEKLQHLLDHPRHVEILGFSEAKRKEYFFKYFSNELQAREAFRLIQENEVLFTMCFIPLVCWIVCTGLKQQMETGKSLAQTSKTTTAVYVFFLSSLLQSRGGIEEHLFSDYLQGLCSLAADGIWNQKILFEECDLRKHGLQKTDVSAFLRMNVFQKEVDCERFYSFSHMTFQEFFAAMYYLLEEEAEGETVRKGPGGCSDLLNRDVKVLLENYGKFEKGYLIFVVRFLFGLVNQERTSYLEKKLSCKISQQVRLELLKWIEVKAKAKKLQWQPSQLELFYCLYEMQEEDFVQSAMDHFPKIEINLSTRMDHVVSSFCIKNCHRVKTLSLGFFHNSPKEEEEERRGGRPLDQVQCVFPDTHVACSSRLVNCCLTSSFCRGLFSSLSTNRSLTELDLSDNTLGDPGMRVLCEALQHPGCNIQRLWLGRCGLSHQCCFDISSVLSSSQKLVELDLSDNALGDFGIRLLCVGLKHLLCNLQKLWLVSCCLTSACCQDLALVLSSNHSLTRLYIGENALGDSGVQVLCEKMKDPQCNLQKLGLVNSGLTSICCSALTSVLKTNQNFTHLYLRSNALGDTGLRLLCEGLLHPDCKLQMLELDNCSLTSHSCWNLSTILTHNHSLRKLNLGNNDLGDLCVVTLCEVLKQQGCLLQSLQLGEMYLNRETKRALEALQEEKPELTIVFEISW
# UniProt Q96P20: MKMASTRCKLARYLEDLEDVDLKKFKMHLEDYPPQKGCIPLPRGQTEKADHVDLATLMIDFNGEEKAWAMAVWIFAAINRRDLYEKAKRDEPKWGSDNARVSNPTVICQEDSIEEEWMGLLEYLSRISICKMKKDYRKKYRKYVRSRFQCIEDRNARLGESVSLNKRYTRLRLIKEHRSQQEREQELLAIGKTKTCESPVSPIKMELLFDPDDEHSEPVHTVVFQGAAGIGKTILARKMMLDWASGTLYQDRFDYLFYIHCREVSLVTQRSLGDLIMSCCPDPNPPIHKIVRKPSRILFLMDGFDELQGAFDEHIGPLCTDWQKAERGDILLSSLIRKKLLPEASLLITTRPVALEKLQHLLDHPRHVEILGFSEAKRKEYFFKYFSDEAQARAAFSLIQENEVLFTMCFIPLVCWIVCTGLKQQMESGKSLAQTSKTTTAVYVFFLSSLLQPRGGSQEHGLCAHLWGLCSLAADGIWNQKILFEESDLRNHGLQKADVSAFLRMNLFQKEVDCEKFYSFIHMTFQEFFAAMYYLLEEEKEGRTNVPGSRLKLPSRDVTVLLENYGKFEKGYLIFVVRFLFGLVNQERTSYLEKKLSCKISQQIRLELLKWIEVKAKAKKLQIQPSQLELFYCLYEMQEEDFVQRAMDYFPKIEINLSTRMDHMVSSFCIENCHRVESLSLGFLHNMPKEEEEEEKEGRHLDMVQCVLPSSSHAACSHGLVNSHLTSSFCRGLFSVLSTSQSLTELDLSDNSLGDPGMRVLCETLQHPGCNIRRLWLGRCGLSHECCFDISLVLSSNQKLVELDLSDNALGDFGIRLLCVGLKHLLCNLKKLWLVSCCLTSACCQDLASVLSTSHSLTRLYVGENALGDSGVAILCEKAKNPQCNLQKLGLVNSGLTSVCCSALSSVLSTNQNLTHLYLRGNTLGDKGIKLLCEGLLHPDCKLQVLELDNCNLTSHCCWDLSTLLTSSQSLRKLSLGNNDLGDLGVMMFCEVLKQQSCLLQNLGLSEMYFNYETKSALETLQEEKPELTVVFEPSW
# UniProt A0A125YVM0, residues 195-288: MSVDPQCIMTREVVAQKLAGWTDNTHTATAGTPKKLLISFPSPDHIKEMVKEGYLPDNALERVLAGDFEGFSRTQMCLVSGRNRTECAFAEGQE
# Results are given in words; binding and its absence hold for the method and conditions named. In cells and extracts the contact can be indirect. Some binding calls cover weakened binding; strength is not graded here.
# Experiments:
# [1] = target: GST-GRA9 C-terminal domain (aa 195-288), expressed in 293T cells (Toxoplasma gondii); assay: pull-down; 293T cells 48 h after transfection with mammalian GST or GST-GRA9 and truncated mutant constructs together with Flag-NLRP3; GST pull down, IB with αFlag
# [2] = target: NLRP3, endogenous in mouse bone marrow-derived macrophages and splenocytes (mouse (endogenous in BMDMs and splenocytes of C57BL/6 mice)) (UniProt Q8R4B8); assay: co-IP; splenocytes of CLP mice treated with recombinant protein by intraperitoneal injection; IP with αHis or αNLRP3, IB with αNLRP3, αASC or αHis; only the binder purified
# [3] = target: NLRP3, endogenous in mouse bone marrow-derived macrophages and splenocytes (mouse (endogenous in BMDMs and splenocytes of C57BL/6 mice)) (UniProt Q8R4B8); assay: co-IP; BMDMs primed with LPS (100 ng/mL), stimulated with ATP (5 mM) and treated with purified rVehicle, rGRA9C or rGRA9C^Q200L (0.1, 1 or 10 μg/mL); IP with αHis or αNLRP3, IB with αNLRP3, αASC or αHis; only the binder purified
Substance,binding [1],binding [2],binding [3]
"Flag-NLRP3 (wild type, full length), expressed in 293T cells (from UniProt Q96P20 1-1036)",binds,,
"recombinant GRA9C (6xHis-GRA9C, GRA9 residues 195-288) (from UniProt A0A125YVM0 195-288) (domain or fragment)",,binds,binds
